# Reference: PMC5713396
# The chains behind the UniProt entries cited, without tags or fusion partners. Where a name states a change or a piece, a line headed by the entry shows the natural chain unless it says otherwise.
# UniProt Q9LUW5: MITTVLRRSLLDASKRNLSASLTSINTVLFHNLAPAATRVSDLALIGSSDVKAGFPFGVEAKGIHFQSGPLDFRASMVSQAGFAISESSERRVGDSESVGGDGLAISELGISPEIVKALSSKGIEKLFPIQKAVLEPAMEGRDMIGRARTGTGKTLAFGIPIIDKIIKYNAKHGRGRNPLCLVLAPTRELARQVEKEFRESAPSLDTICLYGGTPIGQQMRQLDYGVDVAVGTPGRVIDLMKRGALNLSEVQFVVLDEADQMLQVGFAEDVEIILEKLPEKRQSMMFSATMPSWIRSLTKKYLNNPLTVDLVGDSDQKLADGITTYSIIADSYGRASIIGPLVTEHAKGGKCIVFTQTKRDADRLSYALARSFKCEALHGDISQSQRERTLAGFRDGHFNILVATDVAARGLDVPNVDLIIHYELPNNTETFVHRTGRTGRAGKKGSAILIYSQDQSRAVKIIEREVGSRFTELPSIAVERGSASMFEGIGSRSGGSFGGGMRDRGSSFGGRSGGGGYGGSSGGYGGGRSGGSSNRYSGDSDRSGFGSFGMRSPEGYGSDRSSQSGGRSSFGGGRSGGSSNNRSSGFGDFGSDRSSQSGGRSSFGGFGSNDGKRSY
# UniProt F4I611: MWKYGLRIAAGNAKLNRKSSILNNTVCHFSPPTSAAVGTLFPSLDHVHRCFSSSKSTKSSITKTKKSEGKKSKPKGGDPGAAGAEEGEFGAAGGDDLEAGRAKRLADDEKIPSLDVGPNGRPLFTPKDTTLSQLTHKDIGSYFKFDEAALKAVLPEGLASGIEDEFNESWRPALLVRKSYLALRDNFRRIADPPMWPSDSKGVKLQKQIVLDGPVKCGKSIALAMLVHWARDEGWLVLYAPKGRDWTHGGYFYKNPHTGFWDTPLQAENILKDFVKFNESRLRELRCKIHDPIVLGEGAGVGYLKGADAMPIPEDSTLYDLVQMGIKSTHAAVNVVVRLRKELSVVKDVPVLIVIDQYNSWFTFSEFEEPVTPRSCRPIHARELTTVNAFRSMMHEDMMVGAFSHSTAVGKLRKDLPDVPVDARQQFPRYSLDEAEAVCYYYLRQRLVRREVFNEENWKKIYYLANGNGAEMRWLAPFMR
# Results are given in words; binding and its absence hold for the method and conditions named. Binding seen in cells or lysates may run through a third protein. Here binding means that the protein was enriched with, or labelled near, the bait; the list need not be complete. Sequences can lack the tags named with a protein.
# T1: recombinant nMAT2 protein with a hemagglutinin (3HA) tag at its carboxyl terminus (Arabidopsis thaliana) (UniProt Q9FJR9)
# T1 sequence: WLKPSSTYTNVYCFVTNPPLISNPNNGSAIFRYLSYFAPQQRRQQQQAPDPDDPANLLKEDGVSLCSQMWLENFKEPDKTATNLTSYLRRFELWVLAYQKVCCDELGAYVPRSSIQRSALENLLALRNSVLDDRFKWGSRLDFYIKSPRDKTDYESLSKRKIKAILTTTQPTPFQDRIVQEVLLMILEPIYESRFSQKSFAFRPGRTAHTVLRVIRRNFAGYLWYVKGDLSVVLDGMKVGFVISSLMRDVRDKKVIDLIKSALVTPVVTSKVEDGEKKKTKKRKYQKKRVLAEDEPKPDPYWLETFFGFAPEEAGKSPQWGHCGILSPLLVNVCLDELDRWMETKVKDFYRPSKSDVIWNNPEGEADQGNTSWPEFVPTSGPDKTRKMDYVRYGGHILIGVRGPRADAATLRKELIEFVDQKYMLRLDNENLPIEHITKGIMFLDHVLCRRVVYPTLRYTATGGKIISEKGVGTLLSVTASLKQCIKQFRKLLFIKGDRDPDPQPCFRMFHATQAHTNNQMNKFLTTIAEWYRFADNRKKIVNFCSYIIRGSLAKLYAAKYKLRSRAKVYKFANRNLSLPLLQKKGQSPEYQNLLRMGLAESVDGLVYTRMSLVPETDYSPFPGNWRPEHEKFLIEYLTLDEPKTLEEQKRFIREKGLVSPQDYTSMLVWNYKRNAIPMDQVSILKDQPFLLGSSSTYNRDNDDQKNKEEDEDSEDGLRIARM
# B1: ribosomal factor At1g31817 (protein, UniProt Q8VZT8 38-314)
# chain: GGRFREQVPVSGESANNSGLSNTGRIGSSPEPNPSTLRTFGDMKAGLLNRGVNGFSAPNAPPTFKSSLRSRLPNSLPDQFGQTNPGLPNTGGSGFSAPSLSSYENFTQSSSLLKENSRSGGKSSDLDFVREVIEDEGRRTAGIFSHFQRPNLETNADIIHIKMLRNNTFVTVTDSKGNVKCKATSGSLPDLKGGRKMTNYTADATAENIGRRAKAMGLKSVVVKVNGFTHFGKKKKAIIAFRDGFTNSRSDQNPIVYIEDTTRKAHNGCRLPRKRRV
# B2: pentatricopeptide repeat (PPR) protein At1g26460 (protein, UniProt Q9FZD1 116-630)
# chain: SLLNMFADWTASQRWSDMKQLFEVWVRSLDKNGKPNKPDVNLYNHYLRANLMMGASAGDMLDLVAPMEEFSVEPNTASYNLVLKAMYQARETEAAMKLLERMLLLGKDSLPDDESYDLVIGMHFGVGKNDEAMKVMDTALKSGYMLSTSVFTECVRSCVAKGRTDTLVSIIERCKAVDRNKSLCPSWILCNYIAEVAIQEDNSKLAFYAFEFMFKWITRGEMARPSVIFSVDEGLVVAGLASAARTCSSSLVEGSWTILKQSLRGRKAANPASYIAKINAYASLGNLQKAFTSLHELESAYADSEKEVVEEMLSPFTSLYPLVVACSKKGFETLDEVYFQLESLSQGDTPYKSVAALNCIILGCANTWDLDRAYQTFEAISASFGLTPNIDSYNALLYAFGKVKKTFEATNVFEHLVSIGVKPDSRTYSLLVDAHLINRDPKSALTVVDDMIKAGFEPSRETLKKLRRRCVREMDDENDDQVEALAKKFQIRMGSENRRNMLFNIDYSRGRALNN
# B3: pentatricopeptide repeat (PPR) protein At1g10270 (protein, UniProt Q9SY69 1-913)
# chain: MSLSHLLRRLCTTTTTTRSPLSISFLHQRIHNISLSPANEDPETTTGNNQDSEKYPNLNPIPNDPSQFQIPQNHTPPIPYPPIPHRTMAFSSAEEAAAERRRRKRRLRIEPPLHALRRDPSAPPPKRDPNAPRLPDSTSALVGQRLNLHNRVQSLIRASDLDAASKLARQSVFSNTRPTVFTCNAIIAAMYRAKRYSESISLFQYFFKQSNIVPNVVSYNQIINAHCDEGNVDEALEVYRHILANAPFAPSSVTYRHLTKGLVQAGRIGDAASLLREMLSKGQAADSTVYNNLIRGYLDLGDFDKAVEFFDELKSKCTVYDGIVNATFMEYWFEKGNDKEAMESYRSLLDKKFRMHPPTGNVLLEVFLKFGKKDEAWALFNEMLDNHAPPNILSVNSDTVGIMVNECFKMGEFSEAINTFKKVGSKVTSKPFVMDYLGYCNIVTRFCEQGMLTEAERFFAEGVSRSLPADAPSHRAMIDAYLKAERIDDAVKMLDRMVDVNLRVVADFGARVFGELIKNGKLTESAEVLTKMGEREPKPDPSIYDVVVRGLCDGDALDQAKDIVGEMIRHNVGVTTVLREFIIEVFEKAGRREEIEKILNSVARPVRNAGQSGNTPPRVPAVFGTTPAAPQQPRDRAPWTSQGVVHSNSGWANGTAGQTAGGAYKANNGQNPSWSNTSDNQQQQSWSNQTAGQQPPSWSRQAPGYQQQQSWSQQSGWSSPSGHQQSWTNQTAGQQQPWANQTPGQQQQWANQTPGQQQQLANQTPGQQQQWANQTPGQQQQWANQNNGHQQPWANQNTGHQQSWANQTPSQQQPWANQTTGQQQGWGNQTTGQQQQWANQTAGQQSGWTAQQQWSNQTASHQQSQWLNPVPGEVANQTPWSNSVDSHLPQQQEPGPSHECQETQEKKVVELRN
# B4: pentatricopeptide repeat (PPR) protein At1g55890 (protein, UniProt Q9LG23 20-398)
# chain: FSSAATVVSEPTAVTAAISPPQKSLTSLVNGERNPKRIVEKFKKACESERFRTNIAVYDRTVRRLVAAKRLHYVEEILEEQKKYRDMSKEGFAARIISLYGKAGMFENAQKVFEEMPNRDCKRSVLSFNALLSAYRLSKKFDVVEELFNELPGKLSIKPDIVSYNTLIKALCEKDSLPEAVALLDEIENKGLKPDIVTFNTLLLSSYLKGQFELGEEIWAKMVEKNVAIDIRTYNARLLGLANEAKSKELVNLFGELKASGLKPDVFSFNAMIRGSINEGKMDEAEAWYKEIVKHGYRPDKATFALLLPAMCKAGDFESAIELFKETFSKRYLVGQTTLQQLVDELVKGSKREEAEEIVKIAKTNDFLKLKLNLPSQEE
# B5: pentatricopeptide repeat (PPR) protein At1g61870 (protein, UniProt Q8LE47 27-408)
# chain: SSASTILSPDSKTPLTSKEKSKAALSLLKSEKDPDRILEICRAASLTPDCRIDRIAFSAAVENLAEKKHFSAVSNLLDGFIENRPDLKSERFAAHAIVLYAQANMLDHSLRVFRDLEKFEISRTVKSLNALLFACLVAKDYKEAKRVYIEMPKMYGIEPDLETYNRMIKVFCESGSASSSYSIVAEMERKGIKPNSSSFGLMISGFYAEDKSDEVGKVLAMMKDRGVNIGVSTYNIRIQSLCKRKKSKEAKALLDGMLSAGMKPNTVTYSHLIHGFCNEDDFEEAKKLFKIMVNRGCKPDSECYFTLIYYLCKGGDFETALSLCKESMEKNWVPSFSIMKSLVNGLAKDSKVEEAKELIGQVKEKFTRNVELWNEVEAALPQ
# Biological target: T1, recombinant nMAT2 protein with a hemagglutinin (3HA) tag at its carboxyl terminus (Arabidopsis thaliana)
# Assay: affinity purification with mass spectrometry; mitochondria extracts of nmat2/nMAT2-HA plants solubilized with 1% NP-40 in 150 mM NaCl, 10 mM sodium phosphate pH 7.2; anti-HA antibodies on protein A/G sepharose, 4 °C, 16 h; washes with 0.6 M NaCl, 0.5% NP-40, 50 mM Tris-HCl pH 8.3; LC-MS/MS; control: plants with empty vector
row,Molecule,binding
1,RNA helicase PMH2 (from UniProt Q9LUW5),binds
2,ribosomal factor At1g16870 (from UniProt F4I611),binds
3,B1,binds
4,B2,binds
5,B3,binds
6,B4,binds
7,B5,binds
